Assay results from the supplement of paper PMC5355238.
Where a name gives a salt, the structure may show the parent alone. ± gives the standard deviation of the averaged measurements. This is one part of the list. Repeats are few or missing, and single values can be far off.

System: Reh
Assay: S-phase gammaH2AX median, Z-score vs plate median (drug alone); higher = more S-phase DNA damage
Settings: MK1775 concentration 0 nM; 10 µM; 4 h

Compound	S-phase gammaH2AX median (Z-score)
O=P(O)(O)C(Cl)(Cl)P(=O)(O)O [Clodronic acid]	-0.0441
C[C@@H](NC(=O)/C(C#N)=C/c1ccc(O)c(O)c1)c1ccccc1 [Tyrphostin AG 527]	0.1
N=C(N)NCCC[C@H](N)C(=O)O [L-Arginine]	-0.0932
Cc1nc2n(c(=O)c1CCN1CCC(c3noc4cc(F)ccc34)CC1)CCCC2 [Risperidone]	-0.254
CNCCC(Oc1ccc(C(F)(F)F)cc1)c1ccccc1 (stereo not given) [Fluoxetine hydrochloride]	-0.167
C#CCN1C(C)=C(C(=O)OC)C(c2cccc([N+](=O)[O-])c2)C(C(=O)OCC)=C1C (stereo not given)	0.0828
CCCS(=O)(=O)Nc1ccc(F)c(C(=O)c2c[nH]c3ncc(-c4ccc(Cl)cc4)cc23)c1F [Vemurafenib (PLX4032)]	-0.0159
CCCCNC(=O)NS(=O)(=O)c1ccc(C)cc1 [Tolbutamide]	-0.2
C[N+](C)([O-])CCNc1ccc(NCC[N+](C)(C)[O-])c2c1C(=O)c1c(O)ccc(O)c1C2=O [Banoxantrone dihydrochloride]	1.87
CCCCCCCCCCC/C=C\C(C)(C)/C=C\CCCC(=O)O [7,7-Dimethyl-(5Z,8Z)-eicosadienoic acid]	0.0283
COc1cc(Nc2ncc(F)c(Nc3ccc4c(n3)N(COP(=O)(O)O)C(=O)C(C)(C)O4)n2)cc(OC)c1OC	-0.0653
Cc1nnc(C(C)C)n1C1C[C@H]2CC[C@@H](C1)N2CC[C@H](NC(=O)C1CCC(F)(F)CC1)c1ccccc1 (stereo in doubt) [Maraviroc]	-0.0437
CSc1nc(N)c2ncn([C@@H]3O[C@H](COP(=O)(O)OP(=O)(O)OP(=O)(O)O)[C@H](O)C3O)c2n1 (stereo not given in full) [2-Methylthioadenosine triphosphate tetrasodium]	-0.0932
CC(=O)C(C)=O [2,3-Butanedione]	-0.11
Cn1cc(-c2ccc3nnc(C(F)(F)c4ccc5ncccc5c4)n3n2)cn1	0.154
CN1[C@@H](CC(=O)c2ccccc2)CCC[C@H]1C[C@H](O)c1ccccc1 [alpha-Lobeline hydrochloride]	-0.189
CCC(CC)CC1(C(=O)Nc2ccccc2SC(=O)C(C)C)CCCCC1	0.198
C[C@]12CC[C@@H]3c4ccc(O)cc4CC[C@H]3[C@@H]1CCC2=O [Estrone]	0.0252 ± 0.071
CC(=O)OCC1=C(C(=O)O)N2C(=O)[C@@H](NC(=O)CSc3ccncc3)[C@H]2SC1 [Cephapirin sodium]	0.0388
CCCCCCCCc1ccc(CCC(N)(CO)CO)cc1 [Fingolimod (FTY720)]	-0.195
CCCCCCCC/C=C\CCCCCCCC(=O)NCCc1ccc(O)c(O)c1 [N-Oleoyldopamine]	10.9
CNCCC(Oc1ccccc1OC)c1ccccc1 (stereo not given) [Nisoxetine hydrochloride]	0.206
CC1CNCCN1S(=O)(=O)c1cccc2cnccc12 (stereo not given) [H-7 dihydrochloride]	-0.101
CC1CNCCN1S(=O)(=O)c1cccc2cnccc12 (stereo not given)	-0.0346
O=NN(CCCl)C(=O)NC1CCCCC1 [Lomustine (CeeNU)]	0.213
CC1CN(S(=O)(=O)c2cccc3cnccc23)CCN1 (stereo not given)	0.126
CCOC(=O)C1=C[C@]2(CC)CCCN3CCc4c(n1c1ccccc41)[C@@H]32 [Vinpocetine]	-0.0133

Another view of some results above.
Compound | S-phase gammaH2AX median (Z-score)
CCCCCCCC/C=C\CCCCCCCC(=O)NCCc1ccc(O)c(O)c1 [N-Oleoyldopamine] | 10.9
CNCCC(Oc1ccccc1OC)c1ccccc1 (stereo not given) [Nisoxetine hydrochloride] | 0.206
CC1CNCCN1S(=O)(=O)c1cccc2cnccc12 (stereo not given) [H-7 dihydrochloride] | -0.101
CC1CNCCN1S(=O)(=O)c1cccc2cnccc12 (stereo not given) | -0.0346

Taken from the entries so far (two entries):
Compound	S-phase gammaH2AX median (Z-score)
CC1CN(S(=O)(=O)c2cccc3cnccc23)CCN1 (stereo not given)	0.126
CCOC(=O)C1=C[C@]2(CC)CCCN3CCc4c(n1c1ccccc41)[C@@H]32 [Vinpocetine]	-0.0133

Additional records.

Compound	S-phase gammaH2AX median (Z-score)
CCOC(=O)C1=C[C@]2(CC)CCCN3CCc4c(n1c1ccccc41)[C@@H]32 [Vinpocetine (Cavinton)]	-0.0104
COc1ccc(CNC(=O)Nc2ncc([N+](=O)[O-])s2)cc1	-0.0151
O=C1N(c2ccccc2)c2ccccc2C1(Cc1ccncc1)Cc1ccncc1 [Linopirdine]	-0.173
CCCn1c(=O)c2[nH]c(-c3ccc(S(=O)(=O)O)cc3)nc2n(CCC)c1=O [1,3-Dipropyl-8-p-sulfophenylxanthine]	-0.0777
Cc1ccccc1N1C(=O)c2cc(S(N)(=O)=O)c(Cl)cc2NC1C (stereo not given) [Metolazone]	-0.00473
COc1nc(-c2ccc3c(c2)OCO3)n(-c2ccc(NC(=O)CSc3ccccc3)cc2)n1 [SecinH3]	0.00193
Nc1nc(SCc2ccc([N+](=O)[O-])cc2)c2ncn([C@@H]3O[C@H](CO)[C@H](O)C3O)c2n1 (stereo partly drawn) [S-(4-Nitrobenzyl)-6-thioguanosine]	-0.0563
Nc1cccc2c1CN(C1CCC(=O)NC1=O)C2=O (stereo not given) [Lenalidomide]	0.123
NOCC(=O)O [O-(Carboxymethyl)hydroxylamine hemihydrochloride]	0.035
CC1=C(CC(=O)O)c2cc(F)ccc2/C1=C\c1ccc([S+](C)[O-])cc1 (stereo not given) [Sulindac]	0.207
C=CC(=O)N1CCC[C@@H](n2nc(-c3ccc(Oc4ccccc4)cc3)c3c(N)ncnc32)C1	-0.135
CCc1cccc2c3c([nH]c12)C(CC)(CC(=O)O)OCC3 (stereo not given) [Etodolac]	-0.0661
C[C@@H]1CN(CC(=O)Nc2ccc3c(c2)Cc2cccc(-c4cc(=O)cc(N5CCOCC5)o4)c2S3)C[C@H](C)O1	-0.0862
CN(C)CCCO[C@@H]1[C@H]2OC(C)(C)O[C@H]2O[C@@H]1[C@H](O)CO [Amiprilose hydrochloride]	0.00194
Cc1nc(N)sc1-c1ccnc(Nc2ccc(N3CCOCC3)cc2)n1	-0.0607
CN(C)[C@@H]1C(O)=C(C(N)=O)C(=O)[C@@]2(O)C(O)=C3C(=O)c4c(O)ccc(Cl)c4[C@@H](O)[C@H]3C[C@@H]12 [Demeclocycline hydrochloride]	0.0126
O=C(O)/C(=C\c1c(C(=O)O)[nH]c2cc(Cl)cc(Cl)c12)c1ccccc1	-0.0355
N[C@@H](C(=O)N[C@@H]1C(=O)N2C(C(=O)O)=C(Cl)CS[C@H]12)c1ccccc1 [Cefaclor]	0.109
NCCS(=O)O [Hypotaurine]	0.148
O=C(O)c1cc(O)c2ccc(Cl)cc2n1 [7-Chlorokynurenic acid]	-0.00388
CC(C)NC[C@H](O)c1ccc(O)c(O)c1 [R(-)-Isoproterenol (+)-bitartrate]	0.107
CC[C@@H]1/C=C(\C)C[C@H](C)C[C@H](OC)[C@H]2O[C@@](O)(C(=O)C(=O)N3CCCC[C@H]3C(=O)O[C@H](/C(C)=C/[C@@H]3CC[C@H](Cl)[C@H](OC)C3)[C@H](C)[C@@H](O)CC1=O)[C@H](C)C[C@@H]2OC [Pimecrolimus]	-0.0746
Brc1c(NC2=NCCN2)ccc2nccnc12	0.374
CN(C)CCOC(=O)COc1ccc(Cl)cc1 [Centrophenoxine hydrochloride]	0.0738
N=C(N)N/N=C/c1c(Cl)cccc1Cl [Guanabenz acetate]	0
OC(CCN1CCCCC1)(c1ccccc1)C1CCCCC1 (stereo not given) [Trihexyphenidyl hydrochloride]	0.394
N#C/C(=C\c1ccc(O)c(O)c1)C(=O)NCCCNC(=O)/C(C#N)=C/c1ccc(O)c(O)c1 [Tyrphostin AG 537]	0.267

Compound	S-phase gammaH2AX median (Z-score)
CN(CCOc1ccc(CC2SC(=O)NC2=O)cc1)c1ccccn1 (stereo not given) [Rosiglitazone (Avandia)]	-0.0978
Fc1cc(-c2cccc3ncc(-c4cnn(C5CCNCC5)c4)nc23)cc(F)c1CN1CCOCC1	-0.0112
NCCCCNCCCN [Spermidine trihydrochloride]	0.04
Nc1ncn([C@H]2C[C@H](O)[C@@H](CO)O2)c(=O)n1 [Decitabine]	-0.0367
O=C(Cc1ccc(-c2ccc(OCCN3CCOCC3)cc2)cn1)NCc1ccccc1	-0.0274
CCOC(=O)[C@]12CC1/C(=N\O)c1ccccc1O2 (stereo not given in full)	-0.0641
CCN[C@H]1C[C@H](C)S(=O)(=O)c2sc(S(N)(=O)=O)cc21 [Dorzolamide HCL]	0.0143
C[N+](C)(C)CCCCCNCC12CC3CC(CC(C3)C1)C2	0.0126
N[C@H](CO)C(=O)O [D-Serine]	-0.1
NC(Cc1cccc(-c2ccccc2CP(=O)(O)O)c1)C(=O)O (stereo not drawn) [Phenylbenzene-omega-phosphono-alpha-amino acid]	-0.0166
O=S(=O)(c1cccc2cnccc12)N1CCNCC1	0.113
CCOC(=O)C(C)(C)Oc1ccc(Cl)cc1 [Clofibrate]	-0.0155
c1cnc2c(c1)ccc1cccnc12 [1,10-Phenanthroline monohydrate]	10.5
CC(C)NC[C@H](O)COc1ccc(CC(N)=O)cc1 [S(-)-Atenolol]	-0.0951
CO[C@@]1(NC(=O)CSCC#N)C(=O)N2C(C(=O)O)=C(CSc3nnnn3C)CS[C@@H]21 [Cefmetazole sodium]	0.0913
COc1ccc2[nH]c(I)c(CCNC(C)=O)c2c1 [2-Iodomelatonin]	0.0472
CCC(NC(C)C)C(O)c1ccc(O)c(O)c1 (stereo not given) [Isotharine mesylate]	0.0346
C[C@H](NC(=O)Cc1cc(F)cc(F)c1)C(=O)N[C@H](C(=O)OC(C)(C)C)c1ccccc1	0.179
CN1CCc2cccc3c2[C@H]1Cc1ccc(O)c(O)c1-3 [Apomorphine hydrochloride hemihydrate]	-0.00194
CCCCCCCCCCCCCCCC(=O)NCCO [Palmitoylethanolamide]	0.0922
CO[C@@H](C(=O)N1Cc2[nH]nc(NC(=O)c3ccc(N4CCN(C)CC4)cc3)c2C1)c1ccccc1	-0.0553
CN1CCN(C2=Nc3cc(Cl)ccc3Nc3ccccc32)CC1 [Clozapine]	0.033
O=C(O)c1ccccc1Nc1ccccc1 [N-Phenylanthranilic acid]	-0.0272
C=CC[C@H](N)C(=O)O [L-allylglycine]	-0.00388
Brc1ccc([C@H]2CN3CCSC3=N2)cc1 [S(-)-p-Bromotetramisole oxalate]	-0.0272
N#C/C(=C\c1ccc(O)c(O)c1)C(=O)c1ccc(O)c(O)c1 [Tyrphostin AG 538]	-0.0601
